The campaign covered roughly 400,000 compounds. About 13,000 (3.2%) were called active. The inconclusive results got no clear call from the source; some entries with a clear call stand among them for comparison. Calls follow the shape of the dose curve; as a rule, active = well fitted cell-killing curve with a large enough effect; inconclusive = small, poorly fitted or top-dose-only effect, or effect the other way; inactive = flat fitted curve, though single readings scatter. Potencies of inconclusive entries are doubtful fits and often do not repeat.
assay: qHTS assay for MDR1-selective chemotherapeutics: Primary screen using the drug-selected MDR subline cells KB-V1; details: KB-V1 MDR cells viability, CellTiter-Glo, 72 h; activity change, negative = cytotoxicity: at 46.1 µM (top of the series); also: nearly all actives have a fitted effect of over 60% in size
Summary of the method: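 KB-V1 MDR subline cells in DMEM (phenol-red free, 10% FBS) exposed to compounds in qHTS concentration series for 72 h at 37 degrees C. Viability read by CellTiter-Glo luminescence; concentration-effect curves fitted after normalization and correction.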
% is scaled to controls: 0 for no effect and ±100 for the full control effect; potency is read from the fitted curve at half-maximal effect.

| Structure (SMILES) | Potency | activity change, negative = cytotoxicity |
| --- | --- | --- |
| O=S(=O)(NC(=S)NC1CCCCC1)c1ccccc1 | inconclusive: 10.3 µM [rising, partial curve] |  |
| O=C(COC(=O)c1n[nH]c2ccccc12)c1cccc(Br)c1 | inconclusive: 29.1 µM [cytotoxic, single point] |  |
| COc1ccccc1N1CCN(c2ccc3ccccc3n2)CC1 | inconclusive: 16.4 µM [cytotoxic, partial curve, poor fit] |  |
| NC(=O)c1c(N)[nH]c(C(=O)c2ccccc2)c1-c1ccncc1 | inactive |  |
| CCOC(=O)C1CCN(C(=O)COC(=O)c2ccc3[nH]c4c(c3c2)CCCC4)CC1 | inactive |  |
| CSc1ccccc1NC(=O)CN(C)C(=O)c1ccc2c(c1)OCCO2 | inconclusive: 8.2 µM [cytotoxic, partial curve, poor fit] |  |
| O=C(Nc1nnc(C(F)(F)F)s1)c1c(F)cccc1F | inactive |  |
| CC(=O)Nc1ccc(NC(=O)N2CCCCC2)cc1 | inconclusive: 29.1 µM [rising, single point] |  |
| CCS(=O)(=O)n1nc(-c2ccc(C)cc2)nc1N | inactive |  |
| CNCc1cc(Cl)cc(OC)c1OC(C)C | inconclusive: 0.82 µM [cytotoxic, full curve, poor fit] |  |
| CC(C)(C)c1csc(NC(=O)Cc2ccc(S(=O)(=O)N3CCOCC3)s2)n1 | inconclusive: 14.6 µM [cytotoxic, partial curve] |  |
| Cc1cccc(NC(=O)COc2ccc3oc4c(c3c2)CCCC4)c1 | inconclusive: 9.2 µM [rising, partial curve, poor fit] |  |
| Cn1c(CN2CCOCC2)nc2cc(NC(=O)c3ccccc3Cl)ccc21 | inconclusive: 20.6 µM [cytotoxic, single point] |  |
| CC(C)NCC(=O)NC12CC3CC(CC(C3)C1)C2 | active: 20.6 µM |  |
| COCCCNc1oc(-c2ccccc2OC)nc1C#N | inconclusive: 13 µM [cytotoxic, partial curve] |  |
| COc1cc(SC)ccc1C(=O)OCc1nc2ccsc2c(=O)[nH]1 | inconclusive: 20.6 µM [cytotoxic, single point] |  |
| O=C(c1cc([N+](=O)[O-])cc([N+](=O)[O-])c1)N1CCCc2ccccc21 | inconclusive: 29.1 µM [cytotoxic, single point] |  |
| CC(C)c1ccc(/C=C/C(=O)Nc2nncs2)cc1 | inconclusive: 14.6 µM [cytotoxic, partial curve] |  |
| CCc1nc2ccccc2c2nc3ccccc3n12 | inconclusive: 18.4 µM [cytotoxic, single point] |  |
| CN1C(=O)CCC(CCC(=O)O)(c2ccccc2O)C1=O (stereo unspecified) | inactive |  |
| CCOC(=O)N1CCC(=NNC(=O)Cn2ccc(C(F)(F)F)n2)CC1 | inactive |  |
| NC(=O)CC(NC(=O)Cc1cccc2ccccc12)c1ccc(NCc2ccc(F)cc2)c([N+](=O)[O-])c1 (stereo unspecified) |  | inconclusive: -8.14% |
| Cc1ccc(-c2csc(NC(=O)c3c(C)noc3C)n2)cc1 | inconclusive: 18.4 µM [cytotoxic, single point] |  |
| O=C(Cn1c(=O)c2cccn2c2ccccc21)Nc1ccc(F)cc1F | inactive |  |

Ordered by formula weight (smallest number first): some entries from above.

| Structure (SMILES) | Potency | activity change, negative = cytotoxicity |
| --- | --- | --- |
| CCc1nc2ccccc2c2nc3ccccc3n12 | inconclusive: 18.4 µM [cytotoxic, single point] |  |
| O=C(c1cc([N+](=O)[O-])cc([N+](=O)[O-])c1)N1CCCc2ccccc21 | inconclusive: 29.1 µM [cytotoxic, single point] |  |
| O=C(COC(=O)c1n[nH]c2ccccc12)c1cccc(Br)c1 | inconclusive: 29.1 µM [cytotoxic, single point] |  |
| CSc1ccccc1NC(=O)CN(C)C(=O)c1ccc2c(c1)OCCO2 | inconclusive: 8.2 µM [cytotoxic, partial curve, poor fit] |  |
| CCOC(=O)C1CCN(C(=O)COC(=O)c2ccc3[nH]c4c(c3c2)CCCC4)CC1 | inactive |  |

The listing continues.

| Structure (SMILES) | Potency | activity change, negative = cytotoxicity |
| --- | --- | --- |
| COc1ccc(C(CNC(=O)c2ccc3c(c2)OCCO3)N(C)C)cc1 (stereo unspecified) | inconclusive: 1.46 µM [cytotoxic, partial curve, poor fit] |  |
| O=C1c2cccc([N+](=O)[O-])c2C(=O)N1c1c[nH]c(=O)[nH]c1=O | inconclusive: 29.1 µM [rising, single point] |  |
| COc1ccccc1-c1nnc(NC(=O)C2=COCCO2)o1 | inconclusive: 23.1 µM [cytotoxic, partial curve] |  |
| CCc1c(C)nc2ncnn2c1NCCc1ccccc1 | inconclusive: 20.6 µM [cytotoxic, partial curve] |  |
| COc1ccc(/C=C/C(=O)O)cc1 | inconclusive: 29.1 µM [cytotoxic, partial curve, poor fit] |  |
| O=C(Cc1ccc(Cl)cc1)Nc1ccc(-c2cc3ccccc3oc2=O)c(Cl)c1 | active: 2.31 µM |  |
| CCOC(=O)c1cnc2ccc(C)cc2c1Sc1ccccc1C(=O)OC | inconclusive: 18.4 µM [cytotoxic, single point] |  |
| Cc1cccc(NC(=O)Nc2nnc(N3CCCC3)s2)c1 | inactive |  |
| O=C(CN1C(=O)c2cccnc2Oc2ccc(Cl)cc21)NCCCc1ccccc1 | inconclusive: 29.1 µM [cytotoxic, single point] |  |
| COc1ccc(NC(=O)CN2CCN(CC(=O)Nc3ccccc3Cl)CC2)cc1Cl | inconclusive: 13 µM [cytotoxic, partial curve, poor fit] |  |
| CC(C)c1cccc(C(C)C)c1NC(=S)Nc1cccc(Cl)c1 | inconclusive: 16.4 µM [cytotoxic, single point] |  |
| Cc1ccc(C)c2[nH]c(=O)c(CCNC(=O)c3cccs3)cc12 | inactive |  |
| O=c1cc(-c2ccccc2)oc2ccc(Cl)cc12 | active: 20.6 µM |  |
| COC(=O)c1cc(NC(=O)C2CC(=O)NC(=NCc3ccc(OC)cc3)S2)cc(C(=O)OC)c1 (stereo unspecified) | inconclusive: 29.1 µM [cytotoxic, single point] |  |
| O=S(=O)(NCCCN1CCOCC1)c1ccc(F)c(Cl)c1 | inconclusive: 29.1 µM [rising, single point] |  |
| Cc1ccc(NC(=S)NCc2cccn2C)cc1 | inconclusive: 29.1 µM [cytotoxic, single point] |  |
| O=C(CSc1nnc(-c2c[nH]c3ccccc23)n1-c1ccc(F)cc1)NCc1ccco1 | inconclusive: 29.1 µM [cytotoxic, single point] |  |
| Cc1cc(NC(=O)C(C)SCC(=O)OCC(=O)Nc2c(C)cccc2C(C)C)no1 (stereo unspecified) | inactive |  |
| COc1ccc(CCNC(=O)CSc2ccc(-c3cccs3)nn2)cc1OC | inconclusive: 14.6 µM [cytotoxic, partial curve] |  |
| CN1CCN(Cc2ccc(-c3ccc(Cl)cc3)o2)CC1 | inconclusive: 18.4 µM [cytotoxic, partial curve] |  |
| COc1ccc(-n2nnnc2SCC(=O)NCCc2ccc(OC)c(OC)c2)cc1 | active: 8.2 µM |  |
| CCOc1ccc(/C(C)=N\NC(=O)Cc2ccccc2)cc1 | inactive |  |
| Cc1nnsc1C(=O)NC1CCCc2c1cnn2-c1ccc(C(C)(C)C)cc1 (stereo unspecified) | inconclusive: 2.59 µM [cytotoxic, partial curve, poor fit] |  |
| Nc1nc(N)c2c(OCC3CCN(Cc4ccccc4F)CC3)cccc2n1 | inconclusive: 9.2 µM [cytotoxic, partial curve, poor fit] |  |

| Structure (SMILES) | Potency | activity change, negative = cytotoxicity |
| --- | --- | --- |
| Cc1ccc(NC(=O)CN(c2ccc(C)cc2)S(=O)(=O)c2cccc3nonc23)cc1 | inconclusive: 18.4 µM [cytotoxic, single point] |  |
| CC(=O)Nc1cccc(Nc2nc(-c3cccs3)nc3ccccc23)c1 | inconclusive: 29.1 µM [cytotoxic, single point] |  |
| Cc1ccc(C)c(N(CC(=O)NC2CCCCC2)C(=O)CNC(=O)c2ccco2)c1 | inconclusive: 7.31 µM [cytotoxic, partial curve, poor fit] |  |
| CN(C)C(=O)/C(=C\c1cccc(Oc2ccccc2)c1)NC(=O)c1ccccc1 | inconclusive: 16.4 µM [cytotoxic, single point] |  |
| C=CCOc1ccc(C(c2c(C(=O)O)[nH]c3ccccc23)c2c(C(=O)O)[nH]c3ccccc23)cc1 | inactive |  |
| CCC(C)C(=O)Nc1nc(C)c(-c2csc(Nc3cc(Cl)ccc3OC)n2)s1 (stereo unspecified) | inconclusive: 2.91 µM [rising, full curve, poor fit] |  |
| Cc1ccc(C)c(N2CCN(CCCNC(=O)Cn3cc4c(n3)CCC(C)C4)CC2)c1 (stereo unspecified) | inconclusive: 16.4 µM [cytotoxic, single point] |  |
| Cc1cccc(NC(=O)c2c(NC(=O)c3ccco3)sc3c2CCC(C)C3)c1 (stereo unspecified) | inactive |  |
| O=S(=O)(NCC1(N2CCOCC2)CCCCC1)c1ccc(Cl)cc1C(F)(F)F | inconclusive: 7.31 µM [cytotoxic, partial curve, poor fit] |  |
| COc1cccc(NC(=O)Cn2c(=O)n(CCc3cccc(C)c3)c(=O)c3ccccc32)c1 | inactive |  |
| CCOCCCn1c(=N)c(C(=O)NCc2ccccc2)cc2c(=O)n3ccccc3nc21 | inactive |  |
| CCOc1ccccc1NC(=O)C(OC(=O)c1cnccn1)c1ccccc1 (stereo unspecified) | active: 18.4 µM |  |
| CCOc1ccc(CCNC(=O)CCN2C(=O)COc3ccccc32)cc1OCC | inconclusive: 13 µM [cytotoxic, partial curve] |  |
| COc1ccc(COC[C@H](C)[C@H](O)[C@@H](C)[C@H]2OC(=O)[C@@H]2C)cc1 | inactive |  |
| Cc1ccc(NC(=O)CC(=O)Nc2ccc(C)cc2C)c(C)c1 | inactive |  |
| O=C(Nc1ccc(CN2CCOCC2)cc1)c1ccc2ccccc2c1 | inconclusive: 9.2 µM [cytotoxic, partial curve, poor fit] |  |
| CCCCNCCOCCOc1ccccc1-c1ccccc1 | active: 18.4 µM |  |
| O=c1c2ccccc2nc2ccc(NCc3cccs3)nn12 | inactive |  |
| CCN(C(=O)CC(C)C)c1nnc(Cn2nnc3ccccc32)s1 | inconclusive: 5.8 µM [cytotoxic, full curve] |  |
| COc1cccc(-c2nc3c(C#N)c[nH]n3c2NC2CCC(C)CC2)c1 (stereo unspecified) | inactive |  |
| CCN(CC)CC(=O)Nc1nc(-c2ccc(Cl)cc2)cs1 | inconclusive: 18.4 µM [cytotoxic, partial curve] |  |
| CC1CCCC(C)N1CCCNC(=O)c1cc2c(s1)-c1ccccc1OC2 (stereo unspecified) | inactive |  |
| CC(C)CC1(C(=O)NCCN2CCOCC2)C=CCN1C(=O)c1ccccc1 (stereo unspecified) | inconclusive: 18.4 µM [cytotoxic, single point] |  |

— PubChem BioAssay AID1347076 (National Center for Advancing Translational Sciences (NCATS), 2019)
